In publication PMC9418238:
These are yes or no findings as the source states them, for the method shown. A result given as binding can be weak or reduced; the word gives no strength. Sequences can lack the tags named with a protein.

Amino acid sequences for entries named in this document (tags omitted). A change or cut given only in a name is not applied to a line headed by its entry.
UniProt Q7Z434: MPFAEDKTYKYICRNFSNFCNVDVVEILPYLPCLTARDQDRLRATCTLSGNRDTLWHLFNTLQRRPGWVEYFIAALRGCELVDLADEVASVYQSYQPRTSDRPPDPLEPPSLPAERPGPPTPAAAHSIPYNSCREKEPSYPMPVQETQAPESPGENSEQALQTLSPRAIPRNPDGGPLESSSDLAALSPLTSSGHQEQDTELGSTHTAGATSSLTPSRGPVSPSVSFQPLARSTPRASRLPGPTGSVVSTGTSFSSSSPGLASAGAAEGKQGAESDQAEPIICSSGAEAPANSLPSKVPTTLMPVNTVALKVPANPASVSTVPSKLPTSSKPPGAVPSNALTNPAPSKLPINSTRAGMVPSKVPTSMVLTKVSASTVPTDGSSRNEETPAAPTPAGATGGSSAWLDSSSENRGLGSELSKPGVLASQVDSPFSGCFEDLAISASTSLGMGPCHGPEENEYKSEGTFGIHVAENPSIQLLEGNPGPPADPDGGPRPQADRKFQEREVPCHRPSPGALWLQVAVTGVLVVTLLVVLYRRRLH

Biological target: His-MAVS recombinant protein (human) (UniProt Q7Z434)
Experiment: pull-down; recombinant GST-PRMT9 and His-MAVS incubated in vitro; both purified

- binding: binds
B1: GST-PRMT9 recombinant protein (enzyme, UniProt Q6P2P2-1 1-845)
chain: MSNSRPRSRRDAGGGAGAAGRDELVSRSLQSAEHCLGVQDFGTAYAHYLLVLSLAPELKHDVKETFQYTLFRWAEELDALSRIQDLLGCYEQALELFPDDEVICNSMGEHLFRMGFRDEAAGYFHKAVKLNPDFSDAKENFYRVANWLVERWHFIMLNDTKRNTIYNAAIQKAVCLGSKSVLDIGAGTGILSMFAKKAGAHSVYACELSKTMYELACDVVAANKMEAGIKLLHTKSLDIEIPKHIPERVSLVVTETVDAGLFGEGIVESLIHAWEHLLLQPKTKGESANCEKYGKVIPASAVIFGMAVECAEIRRHHRVGIKDIAGIHLPTNVKFQSPAYSSVDTEETIEPYTTEKMSRVPGGYLALTECFEIMTVDFNNLQELKSLATKKPDKIGIPVIKEGILDAIMVWFVLQLDDEHSLSTSPSEETCWEQAVYPVQDLADYWIKPGDHVMMEVSCQDCYLRIQSISVLGLECEMDVAKSFTQNKDLLSLGNEAELCSALANLQTSKPDAVEQTCILESTEIALLNNIPYHEGFKMAMSKVLSSLTPEKLYQTMDTHCQNEMSSGTGQSNTVQNILEPFYVLDVSEGFSVLPVIAGTLGQVKPYSSVEKDQHRIALDLISEANHFPKETLEFWLRHVEDESAMLQRPKSDKLWSIIILDVIEPSGLIQQEIMEKAAISRCLLQSGGKIFPQYVLMFGLLVESQTLLEENAVQGTERTLGLNIAPFINQFQVPIRVFLDLSSLPCIPLSKPVELLRLDLMTPYLNTSNREVKVYVCKSGRLTAIPFWYHMYLDEEIRLDTSSEASHWKQAAVVLDNPIQVEMGEELVLSIQHHKSNVSITVKQ
